In article PMC12649254 one finds binding data, which are given here for one substance.

Chains of the proteins cited; added tags and fusions are not shown.
UniProt Q04207: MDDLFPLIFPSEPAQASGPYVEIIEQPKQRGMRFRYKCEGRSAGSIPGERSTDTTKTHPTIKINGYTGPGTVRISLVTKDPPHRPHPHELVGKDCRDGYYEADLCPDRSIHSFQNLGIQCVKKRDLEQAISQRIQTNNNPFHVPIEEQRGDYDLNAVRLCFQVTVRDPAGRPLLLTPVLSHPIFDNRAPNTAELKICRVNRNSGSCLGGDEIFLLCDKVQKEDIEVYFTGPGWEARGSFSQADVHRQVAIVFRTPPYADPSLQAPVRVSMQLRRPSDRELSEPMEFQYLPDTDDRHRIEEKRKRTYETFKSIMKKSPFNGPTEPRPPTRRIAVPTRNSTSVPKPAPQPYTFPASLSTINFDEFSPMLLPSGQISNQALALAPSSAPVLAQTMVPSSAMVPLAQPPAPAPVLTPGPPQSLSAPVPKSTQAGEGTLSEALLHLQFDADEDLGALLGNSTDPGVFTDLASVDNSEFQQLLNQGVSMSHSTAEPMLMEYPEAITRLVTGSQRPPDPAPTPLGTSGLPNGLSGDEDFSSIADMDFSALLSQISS
UniProt P33242: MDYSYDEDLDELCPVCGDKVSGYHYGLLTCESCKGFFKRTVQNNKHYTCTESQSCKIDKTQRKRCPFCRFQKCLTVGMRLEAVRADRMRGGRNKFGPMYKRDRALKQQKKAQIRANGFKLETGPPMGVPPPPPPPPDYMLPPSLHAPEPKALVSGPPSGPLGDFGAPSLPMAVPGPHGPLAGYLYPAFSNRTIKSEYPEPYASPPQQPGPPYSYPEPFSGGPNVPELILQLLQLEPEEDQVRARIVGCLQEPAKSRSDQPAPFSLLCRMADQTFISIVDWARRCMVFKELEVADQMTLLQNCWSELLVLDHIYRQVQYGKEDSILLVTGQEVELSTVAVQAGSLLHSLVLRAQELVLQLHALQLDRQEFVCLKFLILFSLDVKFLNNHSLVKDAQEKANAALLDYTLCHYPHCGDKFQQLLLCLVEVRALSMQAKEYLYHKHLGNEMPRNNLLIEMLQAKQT

The target of the assay is NF-κB p65 (mouse (endogenous in TM3)) (UniProt Q04207). The assay can be described thus: co-IP; TM3 cell lysates incubated with anti-p65 antibody (1:100) at 4 °C overnight, Protein A/G agarose beads; SF-1 detected by Western blot; normal IgG as negative control; cells with NF-κB activation (PS-NP exposure). (In general: Immunoblotting shows a protein as a band on a membrane.)

Results are given in words; binding and its absence hold for the method and conditions named. In cells and extracts the contact can be indirect. Some results given as binding are weak or reduced against the parent protein; the word gives no strength.

As for “steroidogenic factor-1 (SF-1) (from UniProt P33242 1-462)”, the binding result is recorded as “binds”.
